From PMC10247366
These are yes or no findings as the source states them, for the method shown. Some binding calls cover weakened binding; strength is not graded here.

Sequences of proteins named here, by UniProt entry; tags and fusion partners are left off. A change or cut given only in a name is not applied to a line headed by its entry.
UniProt Q9H6L5, whole entry: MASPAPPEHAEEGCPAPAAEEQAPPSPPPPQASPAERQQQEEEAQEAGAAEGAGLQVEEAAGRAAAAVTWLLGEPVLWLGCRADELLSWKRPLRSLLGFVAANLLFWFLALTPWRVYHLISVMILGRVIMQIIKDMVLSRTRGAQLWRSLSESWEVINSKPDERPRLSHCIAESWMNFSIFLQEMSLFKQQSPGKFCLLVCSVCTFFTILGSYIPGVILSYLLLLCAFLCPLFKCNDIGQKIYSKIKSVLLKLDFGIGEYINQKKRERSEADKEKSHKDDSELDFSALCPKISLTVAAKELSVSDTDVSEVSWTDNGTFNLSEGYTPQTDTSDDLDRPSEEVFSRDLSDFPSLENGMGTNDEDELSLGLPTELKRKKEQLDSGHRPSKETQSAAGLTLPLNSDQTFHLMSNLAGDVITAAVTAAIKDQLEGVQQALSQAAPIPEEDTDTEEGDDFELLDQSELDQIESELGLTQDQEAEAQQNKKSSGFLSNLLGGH

Experiments:
[1] = target: HA–FAM134B WT (UniProt Q9H6L5); assay: high-molecular-weight species on immunoblot; U2OS or HeLa cells stably expressing HA-FAM134B WT or the LIR mutant (doxycycline-inducible), DMSO or 200 nM BafA1 for 6 h; western blot
[2] = target: HA–FAM134B WT (UniProt Q9H6L5); assay: high-molecular-weight (oligomeric, SDS-resistant) species on immunoblot; HA–FAM134B IP from HEK 293T lysate, SDS–PAGE, immunoblot, densitometry of the oligomers

In the case of “HA–FAM134B WT (from UniProt Q9H6L5 1-497)”, the binding [1] is reported as “binds” and the binding [2] is reported as “binds”.
